The values below come from article PMC9913320 (Cancers, 2023).

This data set can be described thus: peptide made by a vendor. The following applies: whole synthesis.

For the substance HYNIC-ADH-1, the “purity (crude or final not stated)” value came to 98.83%.
